The results in this text go back to doi:10.1101/631440.

By UniProt entry, the sequences of proteins in these tests, tags left out.
UniProt Q9EQT3: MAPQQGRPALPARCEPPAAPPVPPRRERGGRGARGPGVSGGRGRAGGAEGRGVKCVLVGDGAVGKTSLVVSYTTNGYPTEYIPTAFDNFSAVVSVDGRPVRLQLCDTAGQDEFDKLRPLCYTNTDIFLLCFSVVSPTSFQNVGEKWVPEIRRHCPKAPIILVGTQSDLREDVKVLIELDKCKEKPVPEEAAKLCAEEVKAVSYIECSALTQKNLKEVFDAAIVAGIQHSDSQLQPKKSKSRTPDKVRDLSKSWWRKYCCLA
UniProt Q15811: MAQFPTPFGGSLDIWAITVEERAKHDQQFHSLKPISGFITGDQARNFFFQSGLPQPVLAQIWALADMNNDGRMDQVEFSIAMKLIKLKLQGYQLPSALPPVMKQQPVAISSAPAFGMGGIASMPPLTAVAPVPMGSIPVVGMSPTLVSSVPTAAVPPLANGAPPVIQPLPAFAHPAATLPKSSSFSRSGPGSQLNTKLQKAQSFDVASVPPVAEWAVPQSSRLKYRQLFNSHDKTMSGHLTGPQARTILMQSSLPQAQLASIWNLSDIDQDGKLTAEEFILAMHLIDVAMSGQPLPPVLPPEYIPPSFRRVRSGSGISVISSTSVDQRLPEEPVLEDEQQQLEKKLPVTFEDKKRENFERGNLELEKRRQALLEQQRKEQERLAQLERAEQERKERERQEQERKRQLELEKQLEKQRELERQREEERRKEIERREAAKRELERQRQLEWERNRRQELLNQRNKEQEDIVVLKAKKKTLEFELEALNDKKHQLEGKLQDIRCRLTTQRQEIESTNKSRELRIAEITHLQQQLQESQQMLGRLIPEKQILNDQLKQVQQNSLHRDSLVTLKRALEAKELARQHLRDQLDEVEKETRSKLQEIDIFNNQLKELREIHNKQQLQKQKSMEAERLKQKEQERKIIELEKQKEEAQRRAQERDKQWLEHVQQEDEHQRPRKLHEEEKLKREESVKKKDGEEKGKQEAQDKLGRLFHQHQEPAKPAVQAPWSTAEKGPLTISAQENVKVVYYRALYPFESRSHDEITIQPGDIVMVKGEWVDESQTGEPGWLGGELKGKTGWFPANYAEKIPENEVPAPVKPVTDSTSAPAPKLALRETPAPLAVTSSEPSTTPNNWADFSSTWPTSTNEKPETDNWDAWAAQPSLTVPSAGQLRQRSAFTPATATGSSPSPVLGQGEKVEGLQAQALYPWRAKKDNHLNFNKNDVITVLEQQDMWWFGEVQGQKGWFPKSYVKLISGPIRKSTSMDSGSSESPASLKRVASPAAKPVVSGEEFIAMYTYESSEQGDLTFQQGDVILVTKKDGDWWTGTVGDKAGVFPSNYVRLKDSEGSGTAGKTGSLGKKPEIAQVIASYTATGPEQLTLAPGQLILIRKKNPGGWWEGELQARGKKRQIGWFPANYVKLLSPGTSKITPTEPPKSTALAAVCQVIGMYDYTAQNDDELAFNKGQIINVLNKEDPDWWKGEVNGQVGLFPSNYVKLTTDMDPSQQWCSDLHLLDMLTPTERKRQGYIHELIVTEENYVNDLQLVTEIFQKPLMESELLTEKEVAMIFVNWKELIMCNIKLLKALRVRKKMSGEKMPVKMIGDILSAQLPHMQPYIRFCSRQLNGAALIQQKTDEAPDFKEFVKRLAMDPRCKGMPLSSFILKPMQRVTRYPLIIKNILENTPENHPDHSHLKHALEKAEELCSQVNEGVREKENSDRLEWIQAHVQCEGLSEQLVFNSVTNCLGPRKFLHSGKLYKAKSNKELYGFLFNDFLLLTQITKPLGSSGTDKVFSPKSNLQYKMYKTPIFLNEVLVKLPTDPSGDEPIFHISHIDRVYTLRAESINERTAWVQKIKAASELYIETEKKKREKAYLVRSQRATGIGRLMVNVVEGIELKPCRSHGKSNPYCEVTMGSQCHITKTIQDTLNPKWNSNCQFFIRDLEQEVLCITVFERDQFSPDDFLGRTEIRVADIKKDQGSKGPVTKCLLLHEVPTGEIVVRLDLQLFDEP

No constants are given. Whether binding was seen depends on the method and setting. In cells and extracts the contact can be indirect. Some binding calls cover weakened binding; strength is not graded here.

Assay [1] deals with myc-tagged WT RhoU (mouse) (mouse) (UniProt Q9EQT3). Put plainly: co-IP.
In assay [2] the target is endogenous ITSN1-L (human (endogenous in HEK293T)) (UniProt Q15811). Put plainly: co-IP.

With “Omni-tagged ITSN1-L (from UniProt Q15811 1-1721)”, the binding entry in assay [1] is given as “binds”. On to “endogenous ITSN2-L (from UniProt Q9NZM3-1 1-1697)”, for which, in assay [1], the binding entry is recorded as “binds”. Consider “myc-tagged WT RhoU (mouse) (from UniProt Q9EQT3 1-261)”, for which the binding entry in assay [2] is given as “binds”.
